This is an account of results in patent US20150118305A1, “COMPOSITIONS COMPRISING SULFORAPHANE OR A SULFORAPHANE PRECURSOR AND URSOLIC ACID” (Nutramax Laboratories, Inc., priority 2012, published 2015).

For this data set, the system named is broccoli sprout-derived myrosinase. As to the kind of experiment: Consumption of glucoraphanin by myrosinase as a function of ascorbic acid concentration (Example 3). The class given is biochemical. The method, then: About 250 mg of broccoli seed extract containing about 12% (w/w) glucoraphanin were subjected to hydrolysis by a fixed concentration of broccoli sprout-derived myrosinase in the presence of variable concentration of ascorbic acid, ranging from 0 to 600 μmoles/Liter. The reaction mixtures were thermostated at 38° C.; aliquots were withdrawn every 15 minutes for 60 minutes, and concentration of glucoraphanin determined chromatographically. The rate of glucoraphanin consumption was interpreted as the rate its conversion to sulforaphane. Graphical representation of glucoraphanin content reduction as a function of increasing ascorbic acid concentration results in a series of linear plots; the slopes of the linear regression lines reflect the rate of glucoraphanin consumption, in pmoles/minute. It is apparent that in the presence of 600 μmoles/Liter concentration of ascorbic acid, the reaction rate increased 13-fold relative to that which proceeded in the absence of modulatory effects of ascorbic acid.

On to `O=C1O[C@H]([C@@H](O)CO)C(O)=C1O` [Ascorbic Acid, ascorbic acid], for which the “Intercept of linear regression” value (50 μM ascorbic acid) amounted to 93.271 µmol; the “Intercept of linear regression” value (125 μM ascorbic acid) turned out to be 93.123 µmol; the “Intercept of linear regression” value (250 μM Filtered ascorbic acid) was 93.386 µmol; the “Intercept of linear regression” value (250 μM ascorbic acid) was 93.053 µmol; the “Intercept of linear regression” value (400 μM ascorbic acid) was found to be 93.270 µmol; the “Intercept of linear regression” value (600 μM ascorbic acid) was 92.734 µmol.
